Where a SMILES comes first, the peptide text is derived from it. [ ]: non-standard residue; d: D form.
Experiment: Isothermal titration calorimetry (ITC), peptide binding to LTA
Design: species or system S. aureus
Details: 200 µM peptide titrated into 37.2 µM LTA-SA, 37 °C, three experiments averaged, independent model
Experimental: The interaction between the D-CATH-2 peptides and LTA-SA was tested using isothermal titration calorimetry (ITC). All ITC experiments were performed on a Low Volume NanoITC (TA instruments - Waters LLC, New Castle, USA). Peptide solution or 37.2 µM LTA-SA was prepared in MilliQ:dPBS (Gibco) in a 3:1 ratio. The chamber was filled with 164 µL LTA-SA and the peptide was loaded in the 50 µL syringe. Every 300 s, 1.99 µL peptide was titrated into the chamber at 37 °C. Data was analyzed using the Nano Analyze software (TA instruments-Waters LLC). The data of three experiments was averaged and an independent model was used to determine the peptide-LTA interaction.

In order of rising “n, number of peptide molecules binding to one LPS molecule” value:
1. CC[C@@H](C)[C@@H](NC(=O)[C@@H](CCCCN)NC(=O)[C@@H](CCCNC(=N)N)NC(=O)[C@@H](CC(C)C)NC(=O)[C@@H](Cc1ccccc1)NC(=O)[C@@H](CCCNC(=N)N)NC(=O)CNC(=O)[C@@H](Cc1ccccc1)NC(=O)[C@H](N)CCCNC(=N)N)C(=O)N[C@H](CCCNC(=N)N)C(=O)N[C@H](CCCNC(=N)N)C(=O)N[C@H](Cc1ccccc1)C(=O)N[C@H](CCCNC(=N)N)C(=O)N1CCC[C@@H]1C(=O)N[C@H](CCCCN)C(=O)N[C@@H](C(=O)N[C@@H](C(=O)N[C@@H](C(=O)N[C@@H](C(=O)N[C@@H](C(=O)N[C@H](CCC(N)=O)C(N)=O)[C@H](C)CC)[C@H](C)O)[C@H](C)CC)[C@H](C)O)C(C)C [D-C(1–21)] (H-[dR][dF]G[dR][dF][dL][dR][dK][dI][dR][dR][dF][dR][dP][dK][dV][dT][dI][dT][dI][dQ]-NH2; N-terminus and C-terminus assumed)  0.207
2. CC[C@@H](C)[C@@H](NC(=O)[C@@H](CCCCN)NC(=O)[C@@H](CCCNC(=N)N)NC(=O)[C@@H](CC(C)C)NC(=O)[C@@H](Cc1ccccc1)NC(=O)[C@@H](CCCNC(=N)N)NC(=O)CNC(=O)[C@@H](Cc1ccccc1)NC(=O)[C@H](N)CCCNC(=N)N)C(=O)N[C@H](CCCNC(=N)N)C(=O)N[C@H](CCCNC(=N)N)C(=O)N[C@H](Cc1ccccc1)C(=O)N[C@H](CCCNC(=N)N)C(=O)N1CCC[C@@H]1C(=O)N[C@H](CCCCN)C(=O)N[C@@H](C(=O)N[C@@H](C(=O)N[C@@H](C(=O)N[C@@H](C(=O)N[C@@H](C(=O)N[C@H](CCC(N)=O)C(=O)NCC(=O)N[C@H](CO)C(=O)N[C@H](C)C(=O)N[C@H](CCCNC(=N)N)C(=O)N[C@H](Cc1ccccc1)C(N)=O)[C@H](C)CC)[C@H](C)O)[C@H](C)CC)[C@H](C)O)C(C)C [D-CATH-2] (H-[dR][dF]G[dR][dF][dL][dR][dK][dI][dR][dR][dF][dR][dP][dK][dV][dT][dI][dT][dI][dQ]G[dS][dA][dR][dF]-NH2; N-terminus assumed)  0.543
3. CC[C@@H](C)[C@@H](NC(=O)[C@@H](CCCCN)NC(=O)[C@@H](CCCNC(=N)N)NC(=O)[C@@H](CC(C)C)NC(=O)[C@@H](Cc1ccccc1)NC(=O)[C@H](N)CCCNC(=N)N)C(=O)N[C@H](CCCNC(=N)N)C(=O)N[C@H](CCCNC(=N)N)C(=O)N[C@H](Cc1ccccc1)C(=O)N[C@H](CCCNC(=N)N)C(=O)N1CCC[C@@H]1C(=O)N[C@H](CCCCN)C(=O)N[C@@H](C(=O)N[C@@H](C(=O)N[C@@H](C(=O)N[C@@H](C(=O)N[C@@H](C(=O)N[C@H](CCC(N)=O)C(N)=O)[C@H](C)CC)[C@H](C)O)[C@H](C)CC)[C@H](C)O)C(C)C [D-C(4–21)] (H-[dR][dF][dL][dR][dK][dI][dR][dR][dF][dR][dP][dK][dV][dT][dI][dT][dI][dQ]-NH2; N-terminus and C-terminus assumed)  1.209

In order of rising “ΔH, enthalpy changes” value:
1. CC[C@@H](C)[C@@H](NC(=O)[C@@H](CCCCN)NC(=O)[C@@H](CCCNC(=N)N)NC(=O)[C@@H](CC(C)C)NC(=O)[C@@H](Cc1ccccc1)NC(=O)[C@@H](CCCNC(=N)N)NC(=O)CNC(=O)[C@@H](Cc1ccccc1)NC(=O)[C@H](N)CCCNC(=N)N)C(=O)N[C@H](CCCNC(=N)N)C(=O)N[C@H](CCCNC(=N)N)C(=O)N[C@H](Cc1ccccc1)C(=O)N[C@H](CCCNC(=N)N)C(=O)N1CCC[C@@H]1C(=O)N[C@H](CCCCN)C(=O)N[C@@H](C(=O)N[C@@H](C(=O)N[C@@H](C(=O)N[C@@H](C(=O)N[C@@H](C(=O)N[C@H](CCC(N)=O)C(N)=O)[C@H](C)CC)[C@H](C)O)[C@H](C)CC)[C@H](C)O)C(C)C [D-C(1–21)] (H-[dR][dF]G[dR][dF][dL][dR][dK][dI][dR][dR][dF][dR][dP][dK][dV][dT][dI][dT][dI][dQ]-NH2; N-terminus and C-terminus assumed)  -20.47 kcal/mol
2. CC[C@@H](C)[C@@H](NC(=O)[C@@H](CCCCN)NC(=O)[C@@H](CCCNC(=N)N)NC(=O)[C@@H](CC(C)C)NC(=O)[C@@H](Cc1ccccc1)NC(=O)[C@@H](CCCNC(=N)N)NC(=O)CNC(=O)[C@@H](Cc1ccccc1)NC(=O)[C@H](N)CCCNC(=N)N)C(=O)N[C@H](CCCNC(=N)N)C(=O)N[C@H](CCCNC(=N)N)C(=O)N[C@H](Cc1ccccc1)C(=O)N[C@H](CCCNC(=N)N)C(=O)N1CCC[C@@H]1C(=O)N[C@H](CCCCN)C(=O)N[C@@H](C(=O)N[C@@H](C(=O)N[C@@H](C(=O)N[C@@H](C(=O)N[C@@H](C(=O)N[C@H](CCC(N)=O)C(=O)NCC(=O)N[C@H](CO)C(=O)N[C@H](C)C(=O)N[C@H](CCCNC(=N)N)C(=O)N[C@H](Cc1ccccc1)C(N)=O)[C@H](C)CC)[C@H](C)O)[C@H](C)CC)[C@H](C)O)C(C)C [D-CATH-2] (H-[dR][dF]G[dR][dF][dL][dR][dK][dI][dR][dR][dF][dR][dP][dK][dV][dT][dI][dT][dI][dQ]G[dS][dA][dR][dF]-NH2; N-terminus assumed)  -5.057 kcal/mol
3. CC[C@@H](C)[C@@H](NC(=O)[C@@H](CCCCN)NC(=O)[C@@H](CCCNC(=N)N)NC(=O)[C@@H](CC(C)C)NC(=O)[C@@H](Cc1ccccc1)NC(=O)[C@H](N)CCCNC(=N)N)C(=O)N[C@H](CCCNC(=N)N)C(=O)N[C@H](CCCNC(=N)N)C(=O)N[C@H](Cc1ccccc1)C(=O)N[C@H](CCCNC(=N)N)C(=O)N1CCC[C@@H]1C(=O)N[C@H](CCCCN)C(=O)N[C@@H](C(=O)N[C@@H](C(=O)N[C@@H](C(=O)N[C@@H](C(=O)N[C@@H](C(=O)N[C@H](CCC(N)=O)C(N)=O)[C@H](C)CC)[C@H](C)O)[C@H](C)CC)[C@H](C)O)C(C)C [D-C(4–21)] (H-[dR][dF][dL][dR][dK][dI][dR][dR][dF][dR][dP][dK][dV][dT][dI][dT][dI][dQ]-NH2; N-terminus and C-terminus assumed)  -3.999 kcal/mol

In order of rising “ΔS, entropy changes” value:
1. CC[C@@H](C)[C@@H](NC(=O)[C@@H](CCCCN)NC(=O)[C@@H](CCCNC(=N)N)NC(=O)[C@@H](CC(C)C)NC(=O)[C@@H](Cc1ccccc1)NC(=O)[C@@H](CCCNC(=N)N)NC(=O)CNC(=O)[C@@H](Cc1ccccc1)NC(=O)[C@H](N)CCCNC(=N)N)C(=O)N[C@H](CCCNC(=N)N)C(=O)N[C@H](CCCNC(=N)N)C(=O)N[C@H](Cc1ccccc1)C(=O)N[C@H](CCCNC(=N)N)C(=O)N1CCC[C@@H]1C(=O)N[C@H](CCCCN)C(=O)N[C@@H](C(=O)N[C@@H](C(=O)N[C@@H](C(=O)N[C@@H](C(=O)N[C@@H](C(=O)N[C@H](CCC(N)=O)C(N)=O)[C@H](C)CC)[C@H](C)O)[C@H](C)CC)[C@H](C)O)C(C)C [D-C(1–21)] (H-[dR][dF]G[dR][dF][dL][dR][dK][dI][dR][dR][dF][dR][dP][dK][dV][dT][dI][dT][dI][dQ]-NH2; N-terminus and C-terminus assumed)  −180.6 J/mol·K
2. CC[C@@H](C)[C@@H](NC(=O)[C@@H](CCCCN)NC(=O)[C@@H](CCCNC(=N)N)NC(=O)[C@@H](CC(C)C)NC(=O)[C@@H](Cc1ccccc1)NC(=O)[C@@H](CCCNC(=N)N)NC(=O)CNC(=O)[C@@H](Cc1ccccc1)NC(=O)[C@H](N)CCCNC(=N)N)C(=O)N[C@H](CCCNC(=N)N)C(=O)N[C@H](CCCNC(=N)N)C(=O)N[C@H](Cc1ccccc1)C(=O)N[C@H](CCCNC(=N)N)C(=O)N1CCC[C@@H]1C(=O)N[C@H](CCCCN)C(=O)N[C@@H](C(=O)N[C@@H](C(=O)N[C@@H](C(=O)N[C@@H](C(=O)N[C@@H](C(=O)N[C@H](CCC(N)=O)C(=O)NCC(=O)N[C@H](CO)C(=O)N[C@H](C)C(=O)N[C@H](CCCNC(=N)N)C(=O)N[C@H](Cc1ccccc1)C(N)=O)[C@H](C)CC)[C@H](C)O)[C@H](C)CC)[C@H](C)O)C(C)C [D-CATH-2] (H-[dR][dF]G[dR][dF][dL][dR][dK][dI][dR][dR][dF][dR][dP][dK][dV][dT][dI][dT][dI][dQ]G[dS][dA][dR][dF]-NH2; N-terminus assumed)  37.39 J/mol·K
3. CC[C@@H](C)[C@@H](NC(=O)[C@@H](CCCCN)NC(=O)[C@@H](CCCNC(=N)N)NC(=O)[C@@H](CC(C)C)NC(=O)[C@@H](Cc1ccccc1)NC(=O)[C@H](N)CCCNC(=N)N)C(=O)N[C@H](CCCNC(=N)N)C(=O)N[C@H](CCCNC(=N)N)C(=O)N[C@H](Cc1ccccc1)C(=O)N[C@H](CCCNC(=N)N)C(=O)N1CCC[C@@H]1C(=O)N[C@H](CCCCN)C(=O)N[C@@H](C(=O)N[C@@H](C(=O)N[C@@H](C(=O)N[C@@H](C(=O)N[C@@H](C(=O)N[C@H](CCC(N)=O)C(N)=O)[C@H](C)CC)[C@H](C)O)[C@H](C)CC)[C@H](C)O)C(C)C [D-C(4–21)] (H-[dR][dF][dL][dR][dK][dI][dR][dR][dF][dR][dP][dK][dV][dT][dI][dT][dI][dQ]-NH2; N-terminus and C-terminus assumed)  54.68 J/mol·K

Source: paper PMC8799869, “D-enantiomers of CATH-2 enhance the response of macrophages against Streptococcus suis serotype 2” (Journal of Advanced Research, 2021)
